Experimental data: paper PMC3660581
No constants are given. Whether binding was seen depends on the method and setting. Binding calls can cover weak binding; strength is not graded here.

Target: Mitofilin (bovine heart mitochondria) (bovine (endogenous in heart mitochondria))
Assay: native gel or EMSA; complexome profiling: bovine heart mitochondria solubilized with digitonin (6 g/g), large pore blue native electrophoresis (5-9%), 52 gel slices, quantitative mass spectrometry, hierarchical clustering of migration profiles

binding: binds
B1: coiled-coil-helix-coiled-coil-helix domain containing protein 3 (CHCHD3) (bovine heart mitochondria) (protein, UniProt Q5E9D3 1-227)
chain: MGGTASTRRVTFEADENENITVVKGIRLSENVIDRMKETSPSGPKSQRYSGTYGASVSDEELKRRVAEELALEQAKKESENQKRLKQSKELDAEKAFANEQLTRAILRERISNEEERAKAKHLAKQLEEKDRVIKKQDAFYKEQLARLEERSSEFYKVTTEQYQKAAEEVEAKFKRYEYHPVCADLQAQILQCYRQNTQQTLSCSALASQYMRCVNQAKQSTLEKGG
